Some of the results follow. Repeats are few or missing, and single values can be far off.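 Cells were imaged in 1,536-well plates, and nuclei stained with an antibody against cleaved PARP were counted against all DNA-stained nuclei to give the apoptosis fraction. Screening doses were chosen to leave most cells alive, and resting and induced cleaved-PARP levels differ strongly between cell lines.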
Assays:
Test in all cases: cleaved PARP positive nuclei fraction relative to DMSO control; melanoma cells; higher = more apoptosis
Details in all cases: library dose: low library concentration; 72 h
[1] = tested on: COLO792
[2] = tested on: COLO800
[3] = tested on: COLO829
[4] = tested on: G361
[5] = tested on: IPC-298
[6] = tested on: IST-MEL1
[7] = tested on: LB2518-MEL
[8] = tested on: LOXIMVI

SMILES | cleaved PARP positive nuclei fraction [1] | cleaved PARP positive nuclei fraction [2] | cleaved PARP positive nuclei fraction [3] | cleaved PARP positive nuclei fraction [4] | cleaved PARP positive nuclei fraction [5] | cleaved PARP positive nuclei fraction [6] | cleaved PARP positive nuclei fraction [7] | cleaved PARP positive nuclei fraction [8]
N.N.[Cl][Pt][Cl] [cisplatin] + CC(C)CCN1c2nc(Nc3cc(F)c(O)c(F)c3)ncc2N(C)C(=O)C1C [BID1870] (first compound 1.6 µM, partner dose 0.2 µM) | 137% | 66.1% | 36.9% | 107% | 180% | 70.2% | 69% | 210%
Cc1cc(Nc2cc(N3CCN(C)CC3)nc(Sc3ccc(NC(=O)C4CC4)cc3)n2)n[nH]1 [Tozasertib] + O=C(Oc1ccc([N+](=O)[O-])cc1)N1CCC(C(O)(c2ccc3c(c2)OCO3)c2ccc3c(c2)OCO3)CC1 [JZL184] (first compound 0.006 µM, partner dose 1 µM) | 123% | 126% | 35.6% | 66.4% | 125% | 99.2% | 51.1% | 127%
Cn1c(=O)n(-c2ccc(C(C)(C)C#N)cc2)c2c3cc(-c4cnc5ccccc5c4)ccc3ncc21 + O=C(Oc1ccc([N+](=O)[O-])cc1)N1CCC(C(O)(c2ccc3c(c2)OCO3)c2ccc3c(c2)OCO3)CC1 [JZL184] (first compound 0.004 µM, partner dose 1 µM) | 111% | 42.9% | 128% | 107% | 93.9% | 108% | 99.1% | 123%
N.N.[Cl][Pt][Cl] [cisplatin] + O=S(=O)(c1ccccc1)N(CC(F)(F)F)c1ccc(C(O)(C(F)(F)F)C(F)(F)F)cc1 [T0901317] (first compound 1.6 µM, partner dose 1.4 µM) | 127% | 170% | 66.6% | 171% | 101% | 61.3% | 66.7% | 50.8%
COc1cc([C@@H]2c3cc4c(cc3[C@@H](O[C@@H]3O[C@@H]5CO[C@@H](C)O[C@H]5[C@H](O)[C@H]3O)[C@H]3COC(=O)[C@H]23)OCO4)cc(OC)c1O [etoposide] + C/C(O)=C(\C#N)C(=O)Nc1cc(Br)ccc1Br [LFM-A13] (first compound 0.02 µM, partner dose 2 µM) | 123% | 39.3% | 120% | 69.7% | 82.6% | 104% | 153% | 98.4%
Cn1sc(=O)n(Cc2ccccc2)c1=O + C/C(O)=C(\C#N)C(=O)Nc1cc(Br)ccc1Br [LFM-A13] (first compound 0.4 µM, partner dose 2 µM) | 105% | 151% | 42.6% | 67.3% | 46.9% | 131% | 72.3% | 78.6%
N.N.[Cl][Pt][Cl] [cisplatin] + c1cc(-c2cnn3cc(-c4ccc(OCCN5CCCCC5)cc4)cnc23)ccn1 [Dorsomorphin] (first compound 1.6 µM, partner dose 0.4 µM) | 81% | 110% | 127% | 161% | 38.5% | 169% | 261% | 165%
NC1(c2ccc(-c3nc4ccn5c(=O)[nH]nc5c4cc3-c3ccccc3)cc2)CCC1 + O=C(Oc1ccc([N+](=O)[O-])cc1)N1CCC(C(O)(c2ccc3c(c2)OCO3)c2ccc3c(c2)OCO3)CC1 [JZL184] (first compound 0.4 µM, partner dose 1 µM) | 121% | 75.4% | 237% | 67.1% | 92.7% | 58.2% | 141% | 67.3%
C=C(c1ccc(C(=O)O)cc1)c1cc2c(cc1C)C(C)(C)CCC2(C)C [Bexarotene] + Cc1cc(SCc2sc(-c3ccc(C(F)(F)F)c(F)c3)nc2C)ccc1OCC(=O)O [GW0742] (first compound 2 µM, partner dose 2 µM) | 195% | 82.4% | 84.9% | 158% | 47.4% | 99.4% | 68.8% | 89.4%
CC(=O)c1c(C)c2cnc(Nc3ccc(N4CCNCC4)cn3)nc2n(C2CCCC2)c1=O [palbociclib] + O=C(Oc1ccc([N+](=O)[O-])cc1)N1CCC(C(O)(c2ccc3c(c2)OCO3)c2ccc3c(c2)OCO3)CC1 [JZL184] (first compound 0.04 µM, partner dose 1 µM) | 117% | 39.1% | 55.7% | 200% | 100% | 22.7% | 81.5% | 48.2%
CNC(=O)c1cc(Oc2ccc(NC(=O)Nc3ccc(Cl)c(C(F)(F)F)c3)cc2)ccn1 [sorafenib] + O=C(Oc1ccc([N+](=O)[O-])cc1)N1CCC(C(O)(c2ccc3c(c2)OCO3)c2ccc3c(c2)OCO3)CC1 [JZL184] (first compound 0.4 µM, partner dose 1 µM) | 165% | 59.8% | 50.9% | 89.3% | 31.4% | 162% | 64.4% | 126%
C[C@]12O[C@H](C[C@]1(O)CO)n1c3ccccc3c3c4c(c5c6ccccc6n2c5c31)CNC4=O [Lestaurtinib] + CCc1ccc(CCOc2ccc(CC3SC(=O)NC3=O)cc2)nc1 [pioglitazone] (first compound 0.004 µM, partner dose 2 µM) | 67.4% | 105% | 121% | 64.6% | 62.3% | 73% | 82.1% | 89.1%
Nc1ncn([C@H]2C[C@H](O)[C@@H](CO)O2)c(=O)n1 [decitabine] + Cc1cc(SCc2sc(-c3ccc(C(F)(F)F)c(F)c3)nc2C)ccc1OCC(=O)O [GW0742] (first compound 0.1 µM, partner dose 2 µM) | 68.2% | 47.3% | 99.2% | 80.5% | 174% | 138% | 216% | 90%
N.N.[Cl][Pt][Cl] [cisplatin] + N#Cc1c(O)c2c(-c3ccc(-c4ccccc4O)cc3)csc2[nH]c1=O [A769662] (first compound 1.6 µM, partner dose 2 µM) | 103% | 84.8% | 48.8% | 88.8% | 87.4% | 55.2% | 34.9% | 162%
N.N.[Cl][Pt][Cl] [cisplatin] + O=c1cc(-c2cccc3c2Sc2ccccc2S3)oc(N2CCOCC2)c1 [KU55933] (first compound 1.6 µM, partner dose 1 µM) | 74.9% | 81.6% | 80.6% | 108% | 43.8% | 86.3% | 72.2% | 198%
O=C(/C=C/c1cccnc1)NCCCCC1CCN(C(=O)c2ccccc2)CC1 + Cc1cc(SCc2sc(-c3ccc(C(F)(F)F)c(F)c3)nc2C)ccc1OCC(=O)O [GW0742] (first compound 0.01 µM, partner dose 2 µM) | 615% | 408% | 287% | 3060% | 731% | 25.9% | 88.3% | 72.5%
Cc1cn(-c2cc(NC(=O)c3ccc(C)c(Nc4nccc(-c5cccnc5)n4)c3)cc(C(F)(F)F)c2)cn1 [nilotinib] + C/C(O)=C(\C#N)C(=O)Nc1cc(Br)ccc1Br [LFM-A13] (first compound 0.2 µM, partner dose 2 µM) | 69.8% | 81% | 24.5% | 81% | 37.7% | 68.4% | 71.5% | 279%
OCc1c[nH]c2ccccc12 [Indole-3-carbinol] + O=C(Oc1ccc([N+](=O)[O-])cc1)N1CCC(C(O)(c2ccc3c(c2)OCO3)c2ccc3c(c2)OCO3)CC1 [JZL184] (first compound 0.8 µM, partner dose 1 µM) | 128% | 84.1% | 151% | 117% | 69.9% | 99.7% | 64.6% | 147%
CCCCCCCCc1ccc(CCC(N)(CO)CO)cc1 [fingolimod] + O=C(Oc1ccc([N+](=O)[O-])cc1)N1CCC(C(O)(c2ccc3c(c2)OCO3)c2ccc3c(c2)OCO3)CC1 [JZL184] (first compound 2 µM, partner dose 1 µM) | 57.5% | 180% | 206% | 75.7% | 87.8% | 58.6% | 128% | 42.2%
Cc1cc(Nc2cc(N3CCN(C)CC3)nc(/C=C/c3ccccc3)n2)n[nH]1 + Cc1cc(SCc2sc(-c3ccc(C(F)(F)F)c(F)c3)nc2C)ccc1OCC(=O)O [GW0742] (first compound 0.04 µM, partner dose 2 µM) | 47.8% | 140% | 199% | 75.8% | 29.9% | 84.8% | 60.4% | 65.8%
C[C@]12O[C@H](C[C@]1(O)CO)n1c3ccccc3c3c4c(c5c6ccccc6n2c5c31)CNC4=O [Lestaurtinib] + O=c1cc(-c2cccc3c2Sc2ccccc2S3)oc(N2CCOCC2)c1 [KU55933] (first compound 0.004 µM, partner dose 1 µM) | 92.3% | 34.4% | 62.4% | 111% | 50.1% | 74.7% | 81.1% | 114%
CCCCCCCCCCCCCCCCCCOP(=O)([O-])OC1CC[N+](C)(C)CC1 [Perifosine] + O=C(Oc1ccc([N+](=O)[O-])cc1)N1CCC(C(O)(c2ccc3c(c2)OCO3)c2ccc3c(c2)OCO3)CC1 [JZL184] (first compound 0.4 µM, partner dose 1 µM) | 107% | 100% | 65.9% | 113% | 62.7% | 150% | 56.8% | 130%

An excerpt of these results, tab-delimited:
SMILES	cleaved PARP positive nuclei fraction [1]	cleaved PARP positive nuclei fraction [2]	cleaved PARP positive nuclei fraction [3]	cleaved PARP positive nuclei fraction [4]	cleaved PARP positive nuclei fraction [5]	cleaved PARP positive nuclei fraction [6]	cleaved PARP positive nuclei fraction [7]	cleaved PARP positive nuclei fraction [8]
COc1cc([C@@H]2c3cc4c(cc3[C@@H](O[C@@H]3O[C@@H]5CO[C@@H](C)O[C@H]5[C@H](O)[C@H]3O)[C@H]3COC(=O)[C@H]23)OCO4)cc(OC)c1O [etoposide] + C/C(O)=C(\C#N)C(=O)Nc1cc(Br)ccc1Br [LFM-A13] (first compound 0.02 µM, partner dose 2 µM)	123%	39.3%	120%	69.7%	82.6%	104%	153%	98.4%
N.N.[Cl][Pt][Cl] [cisplatin] + c1cc(-c2cnn3cc(-c4ccc(OCCN5CCCCC5)cc4)cnc23)ccn1 [Dorsomorphin] (first compound 1.6 µM, partner dose 0.4 µM)	81%	110%	127%	161%	38.5%	169%	261%	165%

From the supplement of paper PMC4604168 (melanoma cell lines)
